{"source": "PubChem BioAssay AID1224826 (NIAID, 2016)", "aim": "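Genes that change LPS-induced Tnf promoter activity in mouse macrophages when knocked down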 (primary screen)", "cell system": "RAW264.7 G9 macrophages from mouse bearing reporters for p65 (GFP) and the Tnf promoter (mCherry)", "reagents": "siRNA pool against mouse genes, 100 nM", "time to read-out": "16 h of LPS stimulation, after 2 days of siRNA transfection", "treatment": "bacterial lipopolysaccharide (Salmonella minnesota R595), 10 ng/ml", "detection": "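Imaged Tnf reporter mCherry in nuclei, minus background, normalised per plate to the median and expressed as robust z-scores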", "scale": "Tnf reporter robust z-score: higher = stronger Tnf promoter reporter signal after LPS", "hit rule": "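Called active when robust z-score is at most -1.3, matching the median of the Tlr4 knock-down control, or over 3; control wells and wells with under 50 cells never active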", "meaning of the calls": "active = Tnf reporter clearly lowered or raised; inactive = no clear change in Tnf reporter", "note": "Here is an unselected part of about 17,000 reagents. About 1,110 of all reagents (6.6%) count as active. 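Active means lowered or raised reporter signal; replicate intensities are raw and not normalised per plate.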 Not all columns of the deposit are shown."}
{"gene knocked down": "Lcor (ligand dependent nuclear receptor corepressor)", "Tnf reporter robust z-score": 1.75, "fewer than 50 cells in well": "enough cells in well", "Outcome": "inactive"}
{"gene knocked down": "Pnpla6 (patatin-like phospholipase domain containing 6)", "Tnf reporter robust z-score": 0.25, "fewer than 50 cells in well": "enough cells in well", "Outcome": "inactive"}
{"gene knocked down": "Arc (activity regulated cytoskeletal-associated protein)", "Tnf reporter robust z-score": 0.46, "fewer than 50 cells in well": "enough cells in well", "Outcome": "inactive"}
{"gene knocked down": "Asb12 (ankyrin repeat and SOCS box-containing 12)", "Tnf reporter robust z-score": 1.53, "fewer than 50 cells in well": "enough cells in well", "Outcome": "inactive"}
{"gene knocked down": "Lgsn (lengsin, lens protein with glutamine synthetase domain)", "Tnf reporter robust z-score": 0.58, "fewer than 50 cells in well": "enough cells in well", "Outcome": "inactive"}
{"gene knocked down": "Ift80 (intraflagellar transport 80)", "Tnf reporter robust z-score": 0.42, "fewer than 50 cells in well": "enough cells in well", "Outcome": "inactive"}
{"gene knocked down": "Cox19 (cytochrome c oxidase assembly protein 19)", "fewer than 50 cells in well": "fewer than 50 cells per well; well left out of calls", "Outcome": "inactive"}
{"gene knocked down": "Etv1 (ets variant 1)", "Tnf reporter robust z-score": -0.11, "fewer than 50 cells in well": "enough cells in well", "Outcome": "inactive"}
{"gene knocked down": "Sebox (SEBOX homeobox)", "Tnf reporter robust z-score": 0.57, "fewer than 50 cells in well": "enough cells in well", "Outcome": "inactive"}
{"gene knocked down": "Kcnmb1", "Tnf reporter robust z-score": 1.21, "fewer than 50 cells in well": "enough cells in well", "Outcome": "inactive"}
{"gene knocked down": "Iscu (iron-sulfur cluster assembly enzyme)", "fewer than 50 cells in well": "fewer than 50 cells per well; well left out of calls", "Outcome": "inactive"}
{"gene knocked down": "Defa31 (defensin, alpha, 31)", "Tnf reporter robust z-score": 2.42, "fewer than 50 cells in well": "enough cells in well", "Outcome": "inactive"}
{"gene knocked down": "Abcc1 (ATP-binding cassette, sub-family C member 1)", "Tnf reporter robust z-score": 0.25, "fewer than 50 cells in well": "enough cells in well", "Outcome": "inactive"}
{"gene knocked down": "Prkaa1 (protein kinase, AMP-activated, alpha 1 catalytic subunit)", "Tnf reporter robust z-score": -0.64, "fewer than 50 cells in well": "enough cells in well", "Outcome": "inactive"}
{"gene knocked down": "Dffb (DNA fragmentation factor, beta subunit)", "Tnf reporter robust z-score": -0.29, "fewer than 50 cells in well": "enough cells in well", "Outcome": "inactive"}
{"gene knocked down": "Sox5 (SRY (sex determining region Y)-box 5)", "Tnf reporter robust z-score": 1.8, "fewer than 50 cells in well": "enough cells in well", "Outcome": "inactive"}
{"gene knocked down": "Cfh (complement component factor h)", "Tnf reporter robust z-score": 0.1, "fewer than 50 cells in well": "enough cells in well", "Outcome": "inactive"}
{"gene knocked down": "Nr2e3 (nuclear receptor subfamily 2, group E, member 3)", "Tnf reporter robust z-score": -0.22, "fewer than 50 cells in well": "enough cells in well", "Outcome": "inactive"}
{"gene knocked down": "Tmem185b (transmembrane protein 185B)", "Tnf reporter robust z-score": 3.87, "fewer than 50 cells in well": "enough cells in well", "Outcome": "active"}
{"gene knocked down": "Rab4b (RAB4B, member RAS oncogene family)", "Tnf reporter robust z-score": 0.04, "fewer than 50 cells in well": "enough cells in well", "Outcome": "inactive"}
{"gene knocked down": "Pcid2 (PCI domain containing 2)", "Tnf reporter robust z-score": -1.36, "fewer than 50 cells in well": "enough cells in well", "Outcome": "active"}
